Test results published in patent US8492378B2, “GSK-3β inhibitor” (Takeda Pharmaceutical Company Limited, priority 2006, dated 2013).
Some results were stated once for a whole list of compounds, not compound by compound.

Amino acid sequences for entries named in this document (tags omitted). A change or cut given only in a name is not applied to a line headed by its entry. Chains listed by the source or under a name are the forms on record and can include a tag or linker.
UniProt P18266: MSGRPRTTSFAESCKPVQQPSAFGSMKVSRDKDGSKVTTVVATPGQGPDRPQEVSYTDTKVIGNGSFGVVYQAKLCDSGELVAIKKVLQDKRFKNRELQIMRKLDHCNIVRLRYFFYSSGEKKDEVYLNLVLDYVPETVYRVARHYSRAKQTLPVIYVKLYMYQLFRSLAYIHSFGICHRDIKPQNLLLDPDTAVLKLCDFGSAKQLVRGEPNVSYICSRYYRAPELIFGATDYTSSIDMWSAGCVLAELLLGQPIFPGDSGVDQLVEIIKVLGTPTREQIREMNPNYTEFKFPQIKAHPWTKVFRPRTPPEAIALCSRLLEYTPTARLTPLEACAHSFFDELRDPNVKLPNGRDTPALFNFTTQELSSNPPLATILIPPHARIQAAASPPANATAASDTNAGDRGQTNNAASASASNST
UniProt P49841, other isoform, or with tags, fused parts or gaps: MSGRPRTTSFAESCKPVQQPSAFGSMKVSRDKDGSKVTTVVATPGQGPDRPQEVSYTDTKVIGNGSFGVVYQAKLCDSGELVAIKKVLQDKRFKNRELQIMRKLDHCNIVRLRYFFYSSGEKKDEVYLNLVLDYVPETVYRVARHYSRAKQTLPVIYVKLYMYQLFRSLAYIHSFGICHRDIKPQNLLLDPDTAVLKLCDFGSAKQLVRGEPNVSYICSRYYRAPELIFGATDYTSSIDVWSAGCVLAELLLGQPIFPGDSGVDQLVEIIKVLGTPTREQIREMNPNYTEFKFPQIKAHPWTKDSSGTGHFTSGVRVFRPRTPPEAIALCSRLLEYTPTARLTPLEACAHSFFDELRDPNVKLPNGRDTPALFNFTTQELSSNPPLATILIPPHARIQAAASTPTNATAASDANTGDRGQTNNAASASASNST

Tests used:
GSK-3β [1] = molecular target: T1, GSK-3β (Rattus norvegicus, UniProt P18266); test: Intracellular GSK-3β inhibitory activity with Tau phosphorylation as index (cerebral cortex-derived neuronal cell); assay type: cell-based, SD rat; conditions: rat cerebral cortex neuronal cells, 2 hr treatment; read-out: IC50 values (Tau phosphorylation AT-8, amended with total Tau)
T1 construct: endogenous in cells; host or cells: primary cerebral cortex neurons from SD rat fetus

GSK-3β [2] = molecular target: GSK-3β (Homo sapiens, UniProt P49841); test: GSK-3β inhibitory activity evaluation (Kinase Glo luminescence); assay type: biochemical; set-up: FLAG (N); made in house; host or cells: Sf-21 insect cells, recombinant baculovirus (pFASTBAC1, BAC-TO-BAC); conditions: recombinant human GSK-3β, read-out: IC50 value (GSK-3β inhibition)

Work on `O=C(CCc1ccccc1)Nc1cc(-c2nnc(SCc3cccc(C(F)(F)F)c3)o2)ccn1` [Example 214, 3-phenyl-N-[4-[5-[[3-(trifluoromethyl)benzyl]thio]-1,3,4-oxadiazol-2-yl]-2-pyridyl]propionamide] yielded an IC50 (GSK-3β [1]) of no more than 10 µM and an IC50 (GSK-3β [2]) of no more than 0.1 µM.

In the case of `N#Cc1cccc(CSc2nnc(-c3ccnc(NC(=O)CCc4ccccc4)c3)o2)c1` [Example 215, N-[4-[5-[(3-cyanobenzyl)thio]-1,3,4-oxadiazol-2-yl]-2-pyridyl]-3-phenylpropionamide], the IC50 (GSK-3β [1]) is reported as no more than 10 µM and the IC50 (GSK-3β [2]) is reported as no more than 0.1 µM.

`O=C(CCN1CCOCC1)Nc1cc(-c2nnc(SCc3cccc(F)c3)o2)ccn1` [Example 218, N-[4-[5-[(3-fluorobenzyl)thio]-1,3,4-oxadiazol-2-yl]-2-pyridyl]-3-morpholinopropionamide] showed an IC50 (GSK-3β [1]) of no more than 10 µM and an IC50 (GSK-3β [2]) of no more than 0.1 µM.

With `O=C(CCN1CCCC1)Nc1cc(-c2nnc(SCc3cccc(F)c3)o2)ccn1` [Example 219, N-[4-[5-[(3-fluorobenzyl)thio]-1,3,4-oxadiazol-2-yl]-2-pyridyl]-3-(1-Pyrrolidinyl)propionamide] the IC50 (GSK-3β [1]) was no more than 10 µM and the IC50 (GSK-3β [2]) was no more than 0.1 µM.

Compound `O=C(CCNC1CC1)Nc1cc(-c2nnc(SCc3cccc(F)c3)o2)ccn1` [Example 220, N^3-cyclopropyl-N-[4-[5-[(3-fluorobenzyl)thio]-1,3,4-oxadiazol-2-yl]pyridin-2-yl]-β-alaninamide] has an IC50 (GSK-3β [1]) of no more than 10 µM and an IC50 (GSK-3β [2]) of no more than 0.1 µM.

For `O=C(NCc1ccccn1)Nc1cc(-c2nnc(SCc3cccc(F)c3)o2)ccn1` [Example 234, N-[4-[5-[(3-fluorobenzyl)thio]-1,3,4-oxadiazol-2-yl]-2-pyridyl]-N′-(2-pyridylmethyl)urea], the IC50 (GSK-3β [1]) was no more than 10 µM and the IC50 (GSK-3β [2]) was no more than 0.1 µM.

`C[S+]([O-])c1ccc(-c2coc3ccc(-c4nnc(SCc5cccc(F)c5)o4)cc23)cc1` (stereo not shown) [Example 259, 2-[(3-fluorobenzyl)thio]-5-[3-[4-(methylsulfinyl)phenyl]-1-benzofuran-5-yl]-1,3,4-oxadiazole] was tested, and the IC50 (GSK-3β [1]) was no more than 10 µM and the IC50 (GSK-3β [2]) was no more than 0.1 µM.

Work on `C[S+]([O-])c1ccc(-c2coc3ccc(-c4nnc(SCc5cccc(Cl)c5)o4)cc23)cc1` (stereo not shown) [Example 260, 2-[(3-chlorobenzyl)thio]-5-[3-[4-(methylsulfinyl)phenyl]-1-benzofuran-5-yl]-1,3,4-oxadiazole] yielded an IC50 (GSK-3β [1]) of no more than 10 µM and an IC50 (GSK-3β [2]) of no more than 0.1 µM.

`C[S+]([O-])c1ccc(-c2coc3ccc(-c4nnc(SCc5cccc(C(F)(F)F)c5)o4)cc23)cc1` (stereo not shown) [Example 261, 2-[3-[4-(methylsulfinyl)phenyl]-1-benzofuran-5-yl]-5-[[3-(trifluoromethyl)benzyl]thio]-1,3,4-oxadiazole] was tested, and the IC50 (GSK-3β [1]) was no more than 10 µM and the IC50 (GSK-3β [2]) was no more than 0.1 µM.

In the case of `C[S+]([O-])c1ccc(-c2coc3ccc(-c4nnc(SCc5cccc(C#N)c5)o4)cc23)cc1` (stereo not shown) [Example 262, 3-[[[5-[3-[4-(methylsulfinyl)phenyl]-1-benzofuran-5-yl]-1,3,4-oxadiazol-2-yl]thio]methyl]benzonitrile], the IC50 (GSK-3β [1]) is reported as no more than 10 µM and the IC50 (GSK-3β [2]) is reported as no more than 0.1 µM.

`CS(=O)(=O)c1ccc(-c2coc3ccc(-c4nnc(N)o4)cc23)cc1` [Example 367, 5-[3-[4-(methylsulfonyl)phenyl]-1-benzofuran-5-yl]-1,3,4-oxadiazol-2-amine] showed an IC50 (GSK-3β [1]) of no more than 10 µM and an IC50 (GSK-3β [2]) of no more than 0.1 µM.

Work on `C[S+]([O-])c1nnc(-c2ccc3occ(-c4ccc(OC(F)(F)F)cc4)c3c2)o1` (stereo not shown) [Example 376, 2-(methylsulfinyl)-5-[3-[4-(trifluoromethoxy)phenyl]-1-benzofuran-5-yl]-1,3,4-oxadiazole] yielded an IC50 (GSK-3β [1]) of no more than 10 µM and an IC50 (GSK-3β [2]) of no more than 0.1 µM.

With `Nc1nnc(-c2ccc3occ(-c4cccc(OC(F)(F)F)c4)c3c2)o1` [Example 380, 5-[3-[3-(trifluoromethoxy)phenyl]-1-benzofuran-5-yl]-1,3,4-oxadiazol-2-amine] the IC50 (GSK-3β [1]) was no more than 10 µM and the IC50 (GSK-3β [2]) was no more than 0.1 µM.

Compound `Nc1nnc(-c2ccc3occ(-c4ccccc4Cl)c3c2)o1` [Example 386, 5-[3-(2-chlorophenyl)-1-benzofuran-5-yl]-1,3,4-oxadiazol-2-amine] has an IC50 (GSK-3β [1]) of no more than 10 µM and an IC50 (GSK-3β [2]) of no more than 0.1 µM.

Work on `Nc1nnc(-c2ccc3occ(-c4cc(F)ccc4F)c3c2)o1` [Example 389, 5-[3-(2,5-difluorophenyl)-1-benzofuran-5-yl]-1,3,4-oxadiazol-2-amine] yielded an IC50 (GSK-3β [1]) of no more than 10 µM and an IC50 (GSK-3β [2]) of no more than 0.1 µM.

`CSc1ccc(-n2cnc3ccc(-c4nnc(CCc5cccc(C#N)c5)o4)cc32)cc1` [Example 416, 3-[2-[5-[1-[4-(methylthio)phenyl]-1H-benzimidazol-6-yl]-1,3,4-oxadiazol-2-yl]ethyl]benzonitrile] showed an IC50 (GSK-3β [1]) of no more than 10 µM and an IC50 (GSK-3β [2]) of no more than 0.1 µM.

`C[S+]([O-])c1ccc(-n2cnc3ccc(-c4nnc(CCc5cccc(C#N)c5)o4)cc32)cc1` (stereo not shown) [Example 417, 3-[2-[5-[1-[4-(methylsulfinyl)phenyl]-1H-benzimidazol-6-yl]-1,3,4-oxadiazol-2-yl]ethyl]benzonitrile] was tested, and the IC50 (GSK-3β [1]) was no more than 10 µM and the IC50 (GSK-3β [2]) was no more than 0.1 µM.

`CS(=O)(=O)c1ccc(-n2cnc3ccc(-c4nnc(CCc5cccc(C#N)c5)o4)cc32)cc1` [Example 418, 3-[2-[5-[1-[4-(methylsulfonyl)phenyl]-1H-benzimidazol-6-yl]-1,3,4-oxadiazol-2-yl]ethyl]benzonitrile] gave an IC50 (GSK-3β [1]) of no more than 10 µM and an IC50 (GSK-3β [2]) of no more than 0.1 µM.

Compound `CSc1ccc(-n2cnc3ccc(-c4nnc(CCc5cccc(C(F)(F)F)c5)o4)cc32)cc1` [Example 419, 1-[4-(methylthio)phenyl]-6-[5-[2-[3-(trifluoromethyl)phenyl]ethyl]-1,3,4-oxadiazol-2-yl]-1H-benzimidazole] has an IC50 (GSK-3β [1]) of no more than 10 µM and an IC50 (GSK-3β [2]) of no more than 0.1 µM.

Compound `C[S+]([O-])c1ccc(-n2cnc3ccc(-c4nnc(CCc5cccc(C(F)(F)F)c5)o4)cc32)cc1` (stereo not shown) [Example 420, 1-[4-(methylsulfinyl)phenyl]-6-[5-[2-[3-(trifluoromethyl)phenyl]ethyl]-1,3,4-oxadiazol-2-yl]-1H-benzimidazole] has an IC50 (GSK-3β [1]) of no more than 10 µM and an IC50 (GSK-3β [2]) of no more than 0.1 µM.

Work on `CS(=O)(=O)c1ccc(-n2cnc3ccc(-c4nnc(CCc5cccc(C(F)(F)F)c5)o4)cc32)cc1` [Example 421, 1-[4-(methylsulfonyl)phenyl]-6-[5-[2-[3-(trifluoromethyl)phenyl]ethyl]-1,3,4-oxadiazol-2-yl]-1H-benzimidazole] yielded an IC50 (GSK-3β [1]) of no more than 10 µM and an IC50 (GSK-3β [2]) of no more than 0.1 µM.

`C[S+]([O-])c1ccc(-n2cnc3ccc(-c4nnc(N)o4)cc32)cc1` (stereo not shown) [Example 423, 5-[1-[4-(methylsulfinyl)phenyl]-1H-benzimidazol-6-yl]-1,3,4-oxadiazol-2-amine] showed an IC50 (GSK-3β [1]) of no more than 10 µM and an IC50 (GSK-3β [2]) of no more than 0.1 µM.

With `C[S+]([O-])c1nnc(-c2ccc3ncn(-c4ccc(OC(F)(F)F)cc4)c3c2)o1` (stereo not shown) [Example 437, 6-[5-(methylsulfinyl)-1,3,4-oxadiazol-2-yl]-1-[4-(trifluoromethoxy)phenyl]-1H-benzimidazole] the IC50 (GSK-3β [1]) was no more than 10 µM and the IC50 (GSK-3β [2]) was no more than 0.1 µM.

With `Nc1nnc(-c2ccc3ncn(-c4cccc(OC(F)(F)F)c4)c3c2)o1` [Example 438, 5-[1-[3-(trifluoromethoxy)phenyl]-1H-benzimidazol-6-yl]-1,3,4-oxadiazol-2-amine] the IC50 (GSK-3β [1]) was no more than 10 µM and the IC50 (GSK-3β [2]) was no more than 0.1 µM.

`Nc1nnc(-c2ccc3ncn(-c4ccc(OC(F)F)cc4)c3c2)o1` [Example 440, 5-[1-[4-(difluoromethoxy)phenyl]-1H-benzimidazol-6-yl]-1,3,4-oxadiazol-2-amine] showed an IC50 (GSK-3β [1]) of no more than 10 µM and an IC50 (GSK-3β [2]) of no more than 0.1 µM.

`C[S+]([O-])c1nnc(-c2ccc3ncn(-c4ccc(OC(F)F)cc4)c3c2)o1` (stereo not shown) [Example 443, 1-[4-(difluoromethoxy)phenyl]-6-[5-(methylsulfinyl)-1,3,4-oxadiazol-2-yl]-1H-benzimidazole] was tested, and the IC50 (GSK-3β [1]) was no more than 10 µM and the IC50 (GSK-3β [2]) was no more than 0.1 µM.

Compound `CNc1nnc(-c2ccc3ncn(-c4cccc(OC(F)(F)F)c4)c3c2)o1` [Example 446, N-methyl-5-[1-[3-(trifluoromethoxy)phenyl]-1H-benzimidazol-6-yl]-1,3,4-oxadiazol-2-amine] has an IC50 (GSK-3β [1]) of no more than 10 µM and an IC50 (GSK-3β [2]) of no more than 0.1 µM.

For `Nc1nnc(-c2ccc3ncn(-c4cccc(C(F)(F)F)c4)c3c2)o1` [Example 448, 5-[1-[3-(trifluoromethyl)phenyl]-1H-benzimidazol-6-yl]-1,3,4-oxadiazol-2-amine], the IC50 (GSK-3β [1]) was no more than 10 µM and the IC50 (GSK-3β [2]) was no more than 0.1 µM.

With `Nc1nnc(-c2ccc3ncn(-c4ccccc4Cl)c3c2)o1` [Example 455, 5-[1-(2-chlorophenyl)-1H-benzimidazol-6-yl]-1,3,4-oxadiazol-2-amine] the IC50 (GSK-3β [1]) was no more than 10 µM and the IC50 (GSK-3β [2]) was no more than 0.1 µM.
